Residue numbers refer to the chain shown, from its start. No constants are given. Whether binding was seen depends on the method and setting. Binding seen in cells or lysates may run through a third protein. Some results given as binding are weak or reduced against the parent protein; the word gives no strength. Where a sequence is shown, tags or fusion partners need not be part of it.
Tests used:
[1] = target: T1, HA-UBA6 mut (4Ala) (UniProt A0AVT1); assay: co-IP; HA-tagged UBA constructs co-transfected with FLAG-USE1 or GFP-polyAla (19Ala) into HEK293T cells; immunoprecipitation with anti-HA; blot with anti-FLAG, anti-HA, anti-GFP
T1 sequence: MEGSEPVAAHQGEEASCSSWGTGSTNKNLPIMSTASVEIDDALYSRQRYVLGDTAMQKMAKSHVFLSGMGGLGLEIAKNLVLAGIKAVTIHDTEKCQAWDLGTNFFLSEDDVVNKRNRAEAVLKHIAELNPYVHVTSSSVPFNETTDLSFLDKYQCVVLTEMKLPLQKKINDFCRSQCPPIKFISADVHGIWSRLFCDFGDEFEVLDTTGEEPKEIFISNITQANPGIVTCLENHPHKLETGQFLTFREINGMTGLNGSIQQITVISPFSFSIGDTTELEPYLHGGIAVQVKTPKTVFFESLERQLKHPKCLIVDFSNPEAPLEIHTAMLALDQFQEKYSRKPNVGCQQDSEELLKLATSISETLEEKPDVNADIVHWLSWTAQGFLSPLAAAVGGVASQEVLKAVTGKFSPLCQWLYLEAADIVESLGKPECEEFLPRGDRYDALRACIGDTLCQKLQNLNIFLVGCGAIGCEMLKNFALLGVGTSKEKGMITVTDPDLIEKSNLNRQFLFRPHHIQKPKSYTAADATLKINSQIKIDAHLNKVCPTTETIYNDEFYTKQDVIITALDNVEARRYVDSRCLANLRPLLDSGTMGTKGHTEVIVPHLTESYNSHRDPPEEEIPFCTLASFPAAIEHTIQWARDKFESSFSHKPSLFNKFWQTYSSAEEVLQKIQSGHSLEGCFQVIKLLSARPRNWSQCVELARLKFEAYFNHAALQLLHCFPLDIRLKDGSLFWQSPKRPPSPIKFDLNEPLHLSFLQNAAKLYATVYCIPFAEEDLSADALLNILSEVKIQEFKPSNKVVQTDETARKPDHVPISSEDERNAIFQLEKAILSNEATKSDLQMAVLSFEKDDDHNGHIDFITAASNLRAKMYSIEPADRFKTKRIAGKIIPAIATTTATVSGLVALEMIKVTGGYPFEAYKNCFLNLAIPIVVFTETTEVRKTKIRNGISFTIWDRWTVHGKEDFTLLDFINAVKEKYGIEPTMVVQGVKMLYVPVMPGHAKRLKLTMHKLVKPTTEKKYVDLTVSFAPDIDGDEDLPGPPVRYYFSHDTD

[2] = target: T2, HA-UBA6 mut (4Asp) (UniProt A0AVT1); assay: as above
T2 sequence: T1 sequence with A628D, A691D, A709D, A714D

[3] = target: T3, HA-tagged UBA6 wild type (pcDNA3.1-HA-UBA6) (UniProt A0AVT1); assay: as above
T3 sequence: T1 sequence with A628K, A691R, A709K, A714K

[4] = target: T4, E1 ubiquitin-activating enzyme UBA6 (endogenous) (human (endogenous in HEK293T, human fibroblasts and iPSC-derived neurons)) (UniProt A0AVT1); assay: co-IP; whole-cell lysates of transfected HEK293T cells; immunoprecipitation of endogenous UBA6 with anti-UBA6; IP buffer 20 mM Tris-HCl pH 7.2, 150 mM NaCl, 2 mM MgCl2, 0.5% NP-40; pre-clearing with beads for isolated polyalanine stretches
T4 sequence: T1 sequence with A628K, A691R, A709K, A714K

Measured: binding

AAAAAAAAAAAAAAAAAAA [GFP-polyAla (19Ala), isolated polyalanine stretch without NLS]
binds: all assays above

From paper PMC10897158
